Tests used:
[1] = test system: HuT78 (human CTCL cell line); experiment: Cancer cell cytotoxicity, CellTiter-Glo Luminescent Cell Viability Assay; conditions: HuT78, read-out: IC50 (μM) cancer cell cytotoxicity
GL261 (murine glioma) = experiment: as above; conditions: Mus musculus, GL261, read-out: IC50 (μM) cancer cell cytotoxicity
Recombinant TDO = target: T1, Recombinant TDO (Homo sapiens, UniProt P48775); experiment: TDO Inhibition Assay (recombinant enzyme, absorbance at 321 nm); assay type: biochemical
T1 construct: Recombinant TDO or IDO was diluted to 16 ng/uL and 50 uL loaded into wells of a 96-well plate
Method: Inhibition of IDO by TDO/IDO test inhibitors was assessed in vitro. A substrate mixture was prepared by mixing equal volumes of 80 mM ascorbic acid diluted in 0.405 M Tris, pH 8.0 and a mixture of […] L-tryptophan, 9,000 units/mL catalase and 40 uM methyene blue. Recombinant TDO or IDO was diluted to 16 ng/uL and 50 uL loaded into wells of a 96-well plate. The reaction was started by the addition of 50 uL substrate mixture. The plate was read in kinetic mode at 321 nm for 5 minutes. The rate of increase of absorbance measured in the absence of a TDO/IDO inhibitor is taken as the maximum rate of enzymatic activity.

Protein sequences, listed by entry. Tags and fused reporters are not part of them. Lines headed by an entry give the natural chain unless they say otherwise; changes in a name come on top.
UniProt P48775: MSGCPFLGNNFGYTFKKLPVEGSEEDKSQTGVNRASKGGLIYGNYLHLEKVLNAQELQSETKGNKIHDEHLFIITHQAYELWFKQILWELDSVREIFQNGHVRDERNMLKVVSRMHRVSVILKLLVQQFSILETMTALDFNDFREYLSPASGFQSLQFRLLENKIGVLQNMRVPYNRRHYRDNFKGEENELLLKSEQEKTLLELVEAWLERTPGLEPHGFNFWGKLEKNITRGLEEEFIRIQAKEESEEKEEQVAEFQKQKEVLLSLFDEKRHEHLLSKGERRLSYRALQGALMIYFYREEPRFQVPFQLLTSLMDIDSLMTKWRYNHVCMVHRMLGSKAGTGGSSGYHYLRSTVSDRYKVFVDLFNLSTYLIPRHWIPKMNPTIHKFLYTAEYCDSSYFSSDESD
UniProt P14902, whole entry: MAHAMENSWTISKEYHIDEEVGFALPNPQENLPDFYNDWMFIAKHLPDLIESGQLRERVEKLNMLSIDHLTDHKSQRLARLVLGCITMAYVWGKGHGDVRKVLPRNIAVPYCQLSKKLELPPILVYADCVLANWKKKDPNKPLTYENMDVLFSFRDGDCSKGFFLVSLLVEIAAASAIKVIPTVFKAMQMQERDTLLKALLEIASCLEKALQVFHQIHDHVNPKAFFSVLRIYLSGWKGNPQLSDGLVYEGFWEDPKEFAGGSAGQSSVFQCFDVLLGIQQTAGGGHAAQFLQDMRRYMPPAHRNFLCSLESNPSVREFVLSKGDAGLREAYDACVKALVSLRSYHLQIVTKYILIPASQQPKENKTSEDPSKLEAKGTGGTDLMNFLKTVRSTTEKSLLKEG

[2] = test system: U87MG (human glioblastoma); experiment: Cancer cell cytotoxicity, CellTiter-Glo Luminescent Cell Viability Assay; conditions: U-87 MG, read-out: IC50 (μM) cancer cell cytotoxicity
[3] = test system: SCC4 (human squamous cell carcinoma); experiment: as above; conditions: SCC-4, read-out: IC50 (μM) cancer cell cytotoxicity
Recombinant IDO = target: T2, Recombinant IDO (Homo sapiens, UniProt P14902); experiment: IDO Inhibition Assay (recombinant enzyme, absorbance at 321 nm); assay type: biochemical
T2 construct: Recombinant TDO or IDO was diluted to 16 ng/uL and 50 uL loaded into wells of a 96-well plate
Method: Inhibition of IDO by TDO/IDO test inhibitors was assessed in vitro. […] Recombinant TDO or IDO was diluted to 16 ng/uL and 50 uL loaded into wells of a 96-well plate. The reaction was started by the addition of 50 uL substrate mixture. […] The rate of increase of absorbance measured in the absence of a TDO/IDO inhibitor is taken as the maximum rate of enzymatic activity.

[4] = test system: Pano2 (murine pancreatic); experiment: Cancer cell cytotoxicity, CellTiter-Glo Luminescent Cell Viability Assay; conditions: Mus musculus, PanO2, read-out: IC50 (μM) cancer cell cytotoxicity
[5] = test system: HT29 (human colorectal adenocarcinoma); experiment: as above; conditions: HT-29, read-out: IC50 (μM) cancer cell cytotoxicity

activity at 1 µM (Recombinant TDO; 1 μM test compound, remaining enzyme activity, read-out: TDO Inhibition Assay Screening (Activity, %) 1 μM): 72%
activity at 10 µM (Recombinant TDO; 10 μM test compound, remaining enzyme activity, read-out: TDO Inhibition Assay Screening (Activity, %) 10 μM): 17%
IC50 (Recombinant TDO; read-out: TDO Inhibition Assay Dose Resp. (IC50)): 3.51 µM
activity at 1 µM (Recombinant IDO; 1 μM test compound, remaining enzyme activity, read-out: IDO Inhibition Assay Screening (Activity, %) 1 μM): 36%
activity at 10 µM (Recombinant IDO; 10 μM test compound, remaining enzyme activity, read-out: IDO Inhibition Assay Screening (Activity, %) 10 μM): 11%
IC50 (Recombinant IDO; read-out: IDO Inhibition Assay Dose Resp. (IC50)): 0.74 µM
SMILES: Clc1ccc(CSC(Cn2ccnc2)c2ccc(Cl)cc2Cl)cc1 (stereo not drawn) [Sulconazole]
IC50 [1]: 9.37 µM
IC50 (GL261 (murine glioma)): 61.8 µM
IC50 [2]: 13.6 µM
IC50 [3]: 109 µM
IC50 [4]: 9.35 µM
IC50 [5]: 8.74 µM
